Measured values as given in patent publication US5998366A, “Method for ameliorating glutamic acid decarboxylase associated autoimmune disorders” (The Regents of the University of California, priority 1997, dated 1999).
Not every detail of the peptide structures is certain; ends, links or a residue may be inferred. Peptide text beside a SMILES is read from it.

Assays:
splenic lymphocytes = test: Proliferation (3H-thymidine incorporation) of splenic lymphocytes cultured with polypeptide; type: cell-based; settings: 1 × 10^5 cells/well, 5 days culture
[1] = tested on: islet infiltrating T lymphocytes (IITLs); test: Proliferation (3H-thymidine incorporation) of islet infiltrating T lymphocytes cultured with polypeptide; type: cell-based; settings: 3 × 10^4 cells/well, 5 days culture, 5×10^4 irradiated spleen cells
female NOD mice = test: Insulitis score after tolerance induction; type: in vivo; settings: Table 8B: neonatal mice injected intraperitoneally with IFA, examined at 12 weeks; scale 0-4
Procedure: 1. In these experiments female NOD mice were intravenously injected at 3 weeks of age with 50 μg GAD, μ-galactosidase, mycobacterial hsp65 (m-hsp) or 0.1 μg of the immunodominant hsp peptide (hsp-p), in PBS. At 12 weeks of age, mice were examined for insulitis and autoantigen reactive T-cells. At this age both indications are established in untreated NOD mice. Pancreatic tissue sections were stained by immunoperoxidase techniques for insulin and were counterstained with hematoxylin. Insulitis was scored in a blinded manner by examining 54 to 87 islets on 5 interrupted tissue sections from each pancreas. Proliferative splenic T-cell responses induced by various antigens were performed as described above in Example 4. Data in Table 8 are expressed as the average [^3 H]-thymidine label (cpm) incorporated in triplicate cultures.
2. […] Proliferative splenic T-cell responses induced by the various antigens were performed as in Example 4, and data in Table 8B are expressed as the average [^3 H]-thymidine label (cpm) incorporated in triplicate cultures.
3. […] Proliferative splenic T-cell responses induced by the various antigens were performed as in Example 4, and data in Table 8C are expressed as the average [^3 H]-thymidine label (cpm) incorporated in triplicate cultures.

[2] = tested on: spleen cells of treated female NOD mice; test: Proliferative splenic T-cell responses to antigens after tolerance induction; type: in vivo; settings: tested at 12 weeks; for Spleen Cell Proliferation (SI ± SEM) GAD Peptides #17: recall antigen #17; for Spleen Cell Proliferation (SI ± SEM) GAD Peptides #34: recall antigen #34; for Spleen Cell Proliferation (SI ± SEM) GAD Peptides #35: recall antigen #35; for Spleen Cell Proliferation (SI ± SEM) GAD: recall antigen GAD; for Spleen Cell Proliferation (SI ± SEM) hsp Peptide: recall antigen hsp peptide; for Spleen Cell Proliferation (SI ± SEM) β-Gal: recall antigen β-Gal
spleen cells of NOD mice = test: Mapping of the anti-GAD T-cell response with GAD65 peptides (spleen cell proliferation); type: cell-based; settings: peptides at 7 μM, 5-day culture (FIG. 10)
[3] = Table 8B: neonatal i.p. with IFA

## CSCC[C@H](NC(=O)CNC(=O)[C@H](CCCCN)NC(=O)[C@H](CCC(=O)O)NC(=O)[C@H](CCCCN)NC(=O)[C@@H](NC(=O)[C@H](CCC(=O)O)NC(=O)[C@@H]1CCCN1C(=O)[C@H](Cc1ccccc1)NC(=O)[C@H](CCSC)NC(=O)[C@H](CCCCN)NC(=O)[C@H](Cc1ccccc1)NC(=O)[C@H](CCCNC(=N)N)NC(=O)[C@H](C)N)C(C)C)C(=O)N[C@@H](C)C(=O)N[C@@H](C)C(=O)O [GAD65 SEQ ID NO:05, ARFKMFPEVKEKGMAA] (H-ARFKMFPEVKEKGMAA-OH)
Splenic lymphocytes
  ^3 THYMIDINE INCORPORATION (cpm) BY LYMPHOID CELL POPULATION SPLEEN: 23,300 cpm
[1]
  ^3 THYMIDINE INCORPORATION (cpm) BY LYMPHOID CELL POPULATION IITLs: 9,500 cpm

## CC[C@H](C)[C@H](NC(=O)[C@H](C)NC(=O)[C@H](Cc1ccc(O)cc1)NC(=O)[C@H](CCCCN)NC(=O)[C@H](CC(C)C)NC(=O)[C@@H](NC(=O)[C@@H](NC(=O)[C@H](CCC(N)=O)NC(=O)[C@H](CS)NC(=O)[C@H](Cc1c[nH]cn1)NC(=O)[C@H](CCSC)NC(=O)[C@H](CC(C)C)NC(=O)[C@@H](NC(=O)[C@H](CCC(=O)O)NC(=O)[C@@H](N)CCC(=O)O)[C@@H](C)CC)[C@@H](C)O)[C@@H](C)O)C(=O)N[C@@H](CCCCN)C(=O)N[C@H](C(=O)NCC(=O)N[C@@H](Cc1c[nH]cn1)C(=O)N1CCC[C@H]1C(=O)O)[C@@H](C)O [Peptide 11] (H-EEILMHCQTTLKYAIKTGHP-OH)
Female NOD mice
  Insulitis Score: ≈ 2.5
[2]; [3]
  Spleen Cell Proliferation (SI ± SEM) GAD Peptides #17: 13.7 ± 1.5 SI
  Spleen Cell Proliferation (SI ± SEM) GAD Peptides #34: 11.4 ± 1.5 SI
  Spleen Cell Proliferation (SI ± SEM) GAD Peptides #35: 11.3 ± 0.7 SI
  Spleen Cell Proliferation (SI ± SEM) GAD: 21.1 ± 2.2 SI
  Spleen Cell Proliferation (SI ± SEM) hsp Peptide: 13.3 ± 0.9 SI
  Spleen Cell Proliferation (SI ± SEM) β-Gal: 1.0 ± 0.1 SI
[2]; Table 8C: i.v. at three weeks
  Spleen Cell Proliferation (SI ± SEM) GAD Peptides #17: 6.9 ± 0.4 SI
  Spleen Cell Proliferation (SI ± SEM) GAD Peptides #34: 6.4 ± 1.0 SI
  Spleen Cell Proliferation (SI ± SEM) GAD Peptides #35: 6.8 ± 0.3 SI
  Spleen Cell Proliferation (SI ± SEM) GAD: 12.1 ± 3.5 SI
  Spleen Cell Proliferation (SI ± SEM) hsp Peptide: 8.7 ± 0.9 SI
[2]; Table 8C: intravenously injected at three weeks of age
  Spleen Cell Proliferation (SI ± SEM) β-Gal: 1.4 ± 0.4 SI

## CSCC[C@H](NC(=O)[C@@H](NC(=O)[C@@H](NC(=O)CNC(=O)[C@H](Cc1ccc(O)cc1)NC(=O)[C@@H](N)CCC(=O)O)[C@@H](C)O)[C@@H](C)O)C(=O)N[C@H](C(=O)N[C@@H](CO)C(=O)N[C@@H](Cc1ccc(O)cc1)C(=O)N[C@@H](CCC(N)=O)C(=O)N1CCC[C@H]1C(=O)N[C@@H](CC(C)C)C(=O)NCC(=O)N[C@@H](CC(=O)O)C(=O)N[C@@H](CCCCN)C(=O)N[C@H](C(=O)N[C@@H](CC(N)=O)C(=O)N[C@@H](Cc1ccccc1)C(=O)N[C@@H](Cc1ccccc1)C(=O)N[C@@H](CCCNC(=N)N)C(=O)O)C(C)C)C(C)C [Peptide 36] (H-EYGTTMVSYQPLGDKVNFFR-OH)
Spleen cells of NOD mice
  age at which a proliferative response to the peptide was first recorded: During the next two weeks

## CC[C@H](C)[C@H](N)C(=O)N1CCC[C@H]1C(=O)N1CCC[C@H]1C(=O)N[C@@H](CO)C(=O)N[C@@H](CC(C)C)C(=O)N[C@@H](CCCNC(=N)N)C(=O)N[C@H](C(=O)N[C@@H](CC(C)C)C(=O)N[C@@H](CCC(=O)O)C(=O)N[C@@H](CC(=O)O)C(=O)N[C@@H](CC(N)=O)C(=O)N[C@@H](CCC(=O)O)C(=O)N[C@@H](CCC(=O)O)C(=O)N[C@@H](CCCNC(=N)N)C(=O)N[C@@H](CCSC)C(=O)N[C@@H](CO)C(=O)N[C@@H](CCCNC(=N)N)C(=O)N[C@@H](CC(C)C)C(=O)N[C@@H](CO)C(=O)N[C@@H](CCCCN)C(=O)O)[C@@H](C)O [Peptide 34] (H-IPPSLRTLEDNEERMSRLSK-OH)
Spleen cells of NOD mice
  age at which a proliferative response to the peptide was first recorded: 4 weeks

## CC[C@H](C)[C@H](NC(=O)[C@H](CCSC)NC(=O)[C@H](CCSC)NC(=O)[C@H](C)NC(=O)[C@H](Cc1ccc(O)cc1)NC(=O)[C@H](CCSC)NC(=O)[C@@H](N)CC(N)=O)C(=O)N[C@@H](C)C(=O)N[C@@H](CCCNC(=N)N)C(=O)N[C@@H](Cc1ccccc1)C(=O)N[C@@H](CCCCN)C(=O)N[C@@H](CCSC)C(=O)N[C@@H](Cc1ccccc1)C(=O)N1CCC[C@H]1C(=O)N[C@@H](CCC(=O)O)C(=O)N[C@H](C(=O)N[C@@H](CCCCN)C(=O)N[C@@H](CCC(=O)O)C(=O)N[C@@H](CCCCN)C(=O)NCC(=O)O)C(C)C [Peptide 17] (H-NMYAMMIARFKMFPEVKEKG-OH)
Spleen cells of NOD mice
  age at which a proliferative response to the peptide was first recorded: 5 weeks
